In publication PMC2243017:
No constants are given. Whether binding was seen depends on the method and setting. For some assays here: Binding seen in cells or lysates may run through a third protein. Some binding calls cover weakened binding; strength is not graded here. For some assays here: Tags and fused reporters may be left off the sequences shown.

Sequences of proteins named here, by UniProt entry; tags and fusion partners are left off. A change or cut given only in a name is not applied to a line headed by its entry. A line that says so, or that is headed by a name, gives the form on record, which may keep a tag or linker.
UniProt Q9UQF2: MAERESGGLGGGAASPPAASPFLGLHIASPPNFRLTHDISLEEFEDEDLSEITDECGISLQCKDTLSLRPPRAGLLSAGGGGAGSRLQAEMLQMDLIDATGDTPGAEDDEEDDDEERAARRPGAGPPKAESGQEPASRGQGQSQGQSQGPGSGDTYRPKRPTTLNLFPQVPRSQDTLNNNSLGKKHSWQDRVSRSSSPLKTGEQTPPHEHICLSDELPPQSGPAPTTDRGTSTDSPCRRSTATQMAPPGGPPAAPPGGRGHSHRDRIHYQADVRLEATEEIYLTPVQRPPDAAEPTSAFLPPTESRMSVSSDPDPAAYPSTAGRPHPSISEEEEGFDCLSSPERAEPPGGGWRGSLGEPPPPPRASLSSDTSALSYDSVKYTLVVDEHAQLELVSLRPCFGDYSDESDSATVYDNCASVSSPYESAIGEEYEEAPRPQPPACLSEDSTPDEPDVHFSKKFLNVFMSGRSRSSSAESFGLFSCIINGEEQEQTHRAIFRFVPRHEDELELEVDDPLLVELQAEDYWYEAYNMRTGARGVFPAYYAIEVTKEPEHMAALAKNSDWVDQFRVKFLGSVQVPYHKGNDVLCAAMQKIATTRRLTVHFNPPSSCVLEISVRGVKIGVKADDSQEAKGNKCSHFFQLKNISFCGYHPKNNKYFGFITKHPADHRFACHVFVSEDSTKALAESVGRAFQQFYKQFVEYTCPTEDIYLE
UniProt Q86Y07: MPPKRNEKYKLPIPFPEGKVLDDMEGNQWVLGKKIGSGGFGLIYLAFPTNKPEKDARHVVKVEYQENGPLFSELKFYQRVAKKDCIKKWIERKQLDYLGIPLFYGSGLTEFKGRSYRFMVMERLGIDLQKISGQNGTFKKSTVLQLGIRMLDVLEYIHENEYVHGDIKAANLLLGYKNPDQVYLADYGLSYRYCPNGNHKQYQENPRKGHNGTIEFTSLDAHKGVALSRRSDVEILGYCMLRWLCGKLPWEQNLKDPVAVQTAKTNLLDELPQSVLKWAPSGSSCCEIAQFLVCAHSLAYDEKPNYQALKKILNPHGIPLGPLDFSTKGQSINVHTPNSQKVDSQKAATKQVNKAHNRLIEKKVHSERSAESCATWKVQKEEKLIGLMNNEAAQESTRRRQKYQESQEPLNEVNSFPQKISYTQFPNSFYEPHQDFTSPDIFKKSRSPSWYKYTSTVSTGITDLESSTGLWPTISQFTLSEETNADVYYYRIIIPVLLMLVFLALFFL
GST-VRK2B (mammalian expression) (Q86Y07-2, form named): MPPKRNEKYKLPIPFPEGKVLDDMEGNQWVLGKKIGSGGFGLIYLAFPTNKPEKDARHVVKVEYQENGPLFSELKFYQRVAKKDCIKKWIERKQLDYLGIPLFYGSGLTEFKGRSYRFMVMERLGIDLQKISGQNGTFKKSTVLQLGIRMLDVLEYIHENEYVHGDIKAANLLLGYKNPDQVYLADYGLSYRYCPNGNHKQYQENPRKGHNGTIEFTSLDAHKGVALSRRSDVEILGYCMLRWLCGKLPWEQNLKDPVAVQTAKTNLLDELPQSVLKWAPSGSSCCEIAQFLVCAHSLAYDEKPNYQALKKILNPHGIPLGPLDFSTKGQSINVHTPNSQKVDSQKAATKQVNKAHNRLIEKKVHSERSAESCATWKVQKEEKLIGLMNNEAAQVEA

T1: GST-JIP1 (1-282) (UniProt Q9WVI9)
T1 sequence: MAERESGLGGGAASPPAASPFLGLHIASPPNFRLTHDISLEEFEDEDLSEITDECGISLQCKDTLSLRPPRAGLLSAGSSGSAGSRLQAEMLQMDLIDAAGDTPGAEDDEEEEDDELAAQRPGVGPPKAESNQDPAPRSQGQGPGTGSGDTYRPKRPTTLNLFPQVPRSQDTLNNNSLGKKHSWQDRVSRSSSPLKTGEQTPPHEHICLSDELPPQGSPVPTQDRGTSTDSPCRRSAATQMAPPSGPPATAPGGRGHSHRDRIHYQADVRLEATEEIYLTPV

T2: GST-JIP1 (471-660) (UniProt Q9WVI9)
T2 sequence: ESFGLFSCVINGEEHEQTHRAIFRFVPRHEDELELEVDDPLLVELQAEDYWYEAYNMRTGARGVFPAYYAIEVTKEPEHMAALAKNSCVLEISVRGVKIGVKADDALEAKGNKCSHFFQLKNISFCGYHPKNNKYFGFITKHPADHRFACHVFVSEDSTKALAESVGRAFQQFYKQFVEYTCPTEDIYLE

T3: GST-JIP1 full-length fusion protein (UniProt Q9WVI9)
T3 sequence: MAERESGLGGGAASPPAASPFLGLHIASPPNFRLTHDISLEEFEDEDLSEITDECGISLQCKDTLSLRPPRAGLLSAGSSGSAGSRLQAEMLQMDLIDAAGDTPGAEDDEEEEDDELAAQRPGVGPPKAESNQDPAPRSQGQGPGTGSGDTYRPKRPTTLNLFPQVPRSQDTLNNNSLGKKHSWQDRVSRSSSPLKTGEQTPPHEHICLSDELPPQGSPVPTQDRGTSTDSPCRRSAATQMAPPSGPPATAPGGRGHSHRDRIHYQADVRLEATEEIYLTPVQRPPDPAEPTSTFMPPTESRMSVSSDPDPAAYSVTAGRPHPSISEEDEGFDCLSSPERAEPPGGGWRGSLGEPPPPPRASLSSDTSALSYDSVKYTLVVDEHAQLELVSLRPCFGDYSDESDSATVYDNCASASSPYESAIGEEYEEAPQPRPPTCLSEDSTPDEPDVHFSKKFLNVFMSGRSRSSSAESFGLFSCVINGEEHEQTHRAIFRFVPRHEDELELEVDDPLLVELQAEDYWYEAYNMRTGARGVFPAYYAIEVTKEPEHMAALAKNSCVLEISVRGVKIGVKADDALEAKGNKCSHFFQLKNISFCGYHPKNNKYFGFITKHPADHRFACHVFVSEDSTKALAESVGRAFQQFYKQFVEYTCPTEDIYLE

T4: HA-TAK1 wild type (UniProt Q62073)
T4 sequence: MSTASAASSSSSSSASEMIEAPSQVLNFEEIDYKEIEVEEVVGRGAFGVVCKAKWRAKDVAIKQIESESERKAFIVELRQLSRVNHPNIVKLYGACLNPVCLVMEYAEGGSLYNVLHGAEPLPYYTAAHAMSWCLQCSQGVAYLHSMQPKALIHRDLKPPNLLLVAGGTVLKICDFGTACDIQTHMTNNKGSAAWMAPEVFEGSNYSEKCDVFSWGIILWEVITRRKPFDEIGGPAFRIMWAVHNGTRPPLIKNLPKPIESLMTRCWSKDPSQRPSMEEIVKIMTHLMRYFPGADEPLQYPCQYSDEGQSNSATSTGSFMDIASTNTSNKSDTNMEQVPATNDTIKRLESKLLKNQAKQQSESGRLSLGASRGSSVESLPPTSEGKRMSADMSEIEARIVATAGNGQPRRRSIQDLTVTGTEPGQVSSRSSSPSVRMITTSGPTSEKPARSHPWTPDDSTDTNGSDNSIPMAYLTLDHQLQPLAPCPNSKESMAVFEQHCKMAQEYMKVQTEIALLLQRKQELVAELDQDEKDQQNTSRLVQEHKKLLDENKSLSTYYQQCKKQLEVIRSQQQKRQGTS


Experiments:
GST-JIP1 (1-282) = target: T1, GST-JIP1 (1-282); experiment: pull-down; lysates of transfected Cos1 cells (48 h; 20 mM Tris-HCl pH 7.4, 137 mM NaCl, 2 mM EDTA, 1% Triton-X100) mixed with glutathione-Sepharose beads 12 h at 4°C to bring down the GST fusion protein; associated transfected or endogenous proteins detected by western blot
GST-JIP1 (471-660) = target: T2, GST-JIP1 (471-660); experiment: as above
[1] = target: T3, GST-JIP1 full-length fusion protein; experiment: as above
[2] = target: T3, GST-JIP1 full-length fusion protein; experiment: SEC; extracts of Cos1 cells transfected with pGST-JIP1 alone or with pHA-TAK1, pFlag-TAB1, pFlag-MKK7, pFlag-JNK, without or with pCEFL-HA-VRK2A or pCEFL-HA-VRK2B, fractionated on Superose 12 10/300 GL (50 mM Tris-HCl pH 7.5, 1 mM EDTA, 100 mM KCl); fractions analysed by western blot
[3] = target: endogenous JIP1 of HeLa cells (human (endogenous in HeLa)) (UniProt Q9UQF2); experiment: SEC; extracts of HeLa cells transfected with shControl (pSuperior-shVRK1) or shVRK2 plasmids fractionated on Superose 12 10/300 GL; endogenous proteins in the fractions detected by western blot
[4] = target: GST-VRK2A (mammalian expression) (human) (UniProt Q86Y07); experiment: pull-down; lysates of transfected Cos1 cells (48 h; 20 mM Tris-HCl pH 7.4, 137 mM NaCl, 2 mM EDTA, 1% Triton-X100) mixed with glutathione-Sepharose beads 12 h at 4°C to bring down the GST fusion protein; associated transfected or endogenous proteins detected by western blot
[5] = target: GST-VRK2B (mammalian expression) (human) (UniProt Q86Y07); experiment: as above
[6] = target: T3, GST-JIP1 full-length fusion protein; experiment: as above; remark: listed apart in the source
HA-TAK1 wild type = target: T4, HA-TAK1 wild type; experiment: SEC; extracts of Cos1 cells transfected with pGST-JIP1 alone or with pHA-TAK1, pFlag-TAB1, pFlag-MKK7, pFlag-JNK, without or with pCEFL-HA-VRK2A or pCEFL-HA-VRK2B, fractionated on Superose 12 10/300 GL (50 mM Tris-HCl pH 7.5, 1 mM EDTA, 100 mM KCl); fractions analysed by western blot

binding (GST-JIP1 (1-282))	binding (GST-JIP1 (471-660))	binding [1]	binding [2]	binding [4]	binding [5]	Molecule	also measured
no binding	binds	binds	binds	–	–	HA-VRK2A (from UniProt Q86Y07-1 1-508) (enzyme)	–
no binding	binds	binds	binds	–	–	HA-VRK2B (from UniProt Q86Y07-2 1-397) (enzyme)	–
–	–	–	–	–	–	endogenous TAK1 of HeLa cells (enzyme, UniProt O43318 1-606) MSTASAASSSSSSSAGEMIEAPSQVLNFEEIDYKEIEVEEVVGRGAFGVVCKAKWRAKDVAIKQIESESERKAFIVELRQLSRVNHPNIVKLYGACLNPVCLVMEYAEGGSLYNVLHGAEPLPYYTAAHAMSWCLQCSQGVAYLHSMQPKALIHRDLKPPNLLLVAGGTVLKICDFGTACDIQTHMTNNKGSAAWMAPEVFEGSNYSEKCDVFSWGIILWEVITRRKPFDEIGGPAFRIMWAVHNGTRPPLIKNLPKPIESLMTRCWSKDPSQRPSMEEIVKIMTHLMRYFPGADEPLQYPCQYSDEGQSNSATSTGSFMDIASTNTSNKSDTNMEQVPATNDTIKRLESKLLKNQAKQQSESGRLSLGASRGSSVESLPPTSEGKRMSADMSEIEARIAATTAYSKPKRGHRKTASFGNILDVPEIVISGNGQPRRRSIQDLTVTGTEPGQVSSRSSSPSVRMITTSGPTSEKPTRSHPWTPDDSTDTNGSDNSIPMAYLTLDHQLQPLAPCPNSKESMAVFEQHCKMAQEYMKVQTEIALLLQRKQELVAELDQDEKDQQNTSRLVQEHKKLLDENKSLSTYYQQCKKQLEVIRSQQQKRQGTS	binding [3]: binds
–	–	–	–	binds	binds	JIP1 expressed from pT7-JIP1 (protein, UniProt Q9WVI9-2 1-660) MAERESGLGGGAASPPAASPFLGLHIASPPNFRLTHDISLEEFEDEDLSEITDECGISLQCKDTLSLRPPRAGLLSAGSSGSAGSRLQAEMLQMDLIDAAGDTPGAEDDEEEEDDELAAQRPGVGPPKAESNQDPAPRSQGQGPGTGSGDTYRPKRPTTLNLFPQVPRSQDTLNNNSLGKKHSWQDRVSRSSSPLKTGEQTPPHEHICLSDELPPQGSPVPTQDRGTSTDSPCRRSAATQMAPPSGPPATAPGGRGHSHRDRIHYQADVRLEATEEIYLTPVQRPPDPAEPTSTFMPPTESRMSVSSDPDPAAYSVTAGRPHPSISEEDEGFDCLSSPERAEPPGGGWRGSLGEPPPPPRASLSSDTSALSYDSVKYTLVVDEHAQLELVSLRPCFGDYSDESDSATVYDNCASASSPYESAIGEEYEEAPQPRPPTCLSEDSTPDEPDVHFSKKFLNVFMSGRSRSSSAESFGLFSCVINGEEHEQTHRAIFRFVPRHEDELELEVDDPLLVELQAEDYWYEAYNMRTGARGVFPAYYAIEVTKEPEHMAALAKNSCVLEISVRGVKIGVKADDALEAKGNKCSHFFQLKNISFCGYHPKNNKYFGFITKHPADHRFACHVFVSEDSTKALAESVGRAFQQFYKQFVEYTCPTEDIYLE	–
–	–	–	binds	binds	no binding	HA-TAK1 wild type (enzyme, UniProt Q62073 1-579) MSTASAASSSSSSSASEMIEAPSQVLNFEEIDYKEIEVEEVVGRGAFGVVCKAKWRAKDVAIKQIESESERKAFIVELRQLSRVNHPNIVKLYGACLNPVCLVMEYAEGGSLYNVLHGAEPLPYYTAAHAMSWCLQCSQGVAYLHSMQPKALIHRDLKPPNLLLVAGGTVLKICDFGTACDIQTHMTNNKGSAAWMAPEVFEGSNYSEKCDVFSWGIILWEVITRRKPFDEIGGPAFRIMWAVHNGTRPPLIKNLPKPIESLMTRCWSKDPSQRPSMEEIVKIMTHLMRYFPGADEPLQYPCQYSDEGQSNSATSTGSFMDIASTNTSNKSDTNMEQVPATNDTIKRLESKLLKNQAKQQSESGRLSLGASRGSSVESLPPTSEGKRMSADMSEIEARIVATAGNGQPRRRSIQDLTVTGTEPGQVSSRSSSPSVRMITTSGPTSEKPARSHPWTPDDSTDTNGSDNSIPMAYLTLDHQLQPLAPCPNSKESMAVFEQHCKMAQEYMKVQTEIALLLQRKQELVAELDQDEKDQQNTSRLVQEHKKLLDENKSLSTYYQQCKKQLEVIRSQQQKRQGTS	binding [6]: binds
–	–	–	binds	–	–	Flag-TAB1 (protein, UniProt Q15750 1-504) MAAQRRSLLQSEQQPSWTDDLPLCHLSGVGSASNRSYSADGKGTESHPPEDSWLKFRSENNCFLYGVFNGYDGNRVTNFVAQRLSAELLLGQLNAEHAEADVRRVLLQAFDVVERSFLESIDDALAEKASLQSQLPEGVPQHQLPPQYQKILERLKTLEREISGGAMAVVAVLLNNKLYVANVGTNRALLCKSTVDGLQVTQLNVDHTTENEDELFRLSQLGLDAGKIKQVGIICGQESTRRIGDYKVKYGYTDIDLLSAAKSKPIIAEPEIHGAQPLDGVTGFLVLMSEGLYKALEAAHGPGQANQEIAAMIDTEFAKQTSLDAVAQAVVDRVKRIHSDTFASGGERARFCPRHEDMTLLVRNFGYPLGEMSQPTPSPAPAAGGRVYPVSVPYSSAQSTSKTSVTLSLVMPSQGQMVNGAHSASTLDEATPTLTNQSPTLTLQSTNTHTQSSSSSSDGGLFRSRPAHSLPPGEDGRVEPYVDFAEFYRLWSVDHGEQSVVTAP	binding (HA-TAK1 wild type): binds
